From paper doi:10.1101/2021.01.11.426208 come the findings set out here.

Protein sequences, listed by entry. Tags and fused reporters are not part of them. Lines headed by an entry give the natural chain unless they say otherwise; changes in a name come on top.
UniProt F4KI84: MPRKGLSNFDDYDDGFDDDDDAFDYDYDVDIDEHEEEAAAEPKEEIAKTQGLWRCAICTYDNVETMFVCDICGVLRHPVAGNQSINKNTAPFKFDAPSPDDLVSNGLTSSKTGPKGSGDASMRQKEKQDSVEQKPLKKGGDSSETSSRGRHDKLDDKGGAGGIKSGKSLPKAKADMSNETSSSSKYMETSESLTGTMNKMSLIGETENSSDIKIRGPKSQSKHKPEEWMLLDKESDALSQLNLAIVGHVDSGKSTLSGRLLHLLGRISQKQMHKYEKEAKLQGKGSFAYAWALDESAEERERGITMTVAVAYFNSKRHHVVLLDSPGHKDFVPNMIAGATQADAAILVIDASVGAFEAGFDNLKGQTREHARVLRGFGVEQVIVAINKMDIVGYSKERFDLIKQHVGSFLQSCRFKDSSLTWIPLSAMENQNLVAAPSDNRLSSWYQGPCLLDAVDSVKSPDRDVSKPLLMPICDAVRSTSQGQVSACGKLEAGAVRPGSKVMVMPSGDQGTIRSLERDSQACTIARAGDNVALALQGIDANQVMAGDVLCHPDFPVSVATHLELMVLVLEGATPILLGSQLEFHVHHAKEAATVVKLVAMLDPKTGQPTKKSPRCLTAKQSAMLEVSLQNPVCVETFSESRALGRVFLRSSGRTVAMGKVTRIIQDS

In experiment [1] the target is T1, PEL1 fused to the GAL4 DNA-binding domain (BD) (Arabidopsis thaliana) (UniProt Q9ZT87).
T1 sequence: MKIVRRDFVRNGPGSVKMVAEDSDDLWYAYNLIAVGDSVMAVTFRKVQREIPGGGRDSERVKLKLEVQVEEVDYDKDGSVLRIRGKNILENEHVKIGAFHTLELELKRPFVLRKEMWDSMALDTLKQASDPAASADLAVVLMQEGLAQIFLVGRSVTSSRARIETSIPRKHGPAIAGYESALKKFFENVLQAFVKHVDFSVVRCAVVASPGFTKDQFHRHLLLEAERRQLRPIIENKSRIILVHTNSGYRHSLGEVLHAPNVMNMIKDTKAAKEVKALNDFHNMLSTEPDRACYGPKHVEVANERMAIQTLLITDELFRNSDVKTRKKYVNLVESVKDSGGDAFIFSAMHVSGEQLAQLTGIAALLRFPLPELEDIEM
Description: two-hybrid.

In experiment [2] the target is HBS1-cYFP fusion protein (Arabidopsis thaliana). Description: split reporter.
In experiment [3] the target is GST-HBS1 fusion protein (Arabidopsis thaliana) (UniProt F4KI84). Description: pull-down.

No constants are given. Whether binding was seen depends on the method and setting. A result given as binding can be weak or reduced; the word gives no strength. Tags and fused reporters may be left off the sequences shown. For part of these data: Binding seen in cells or lysates may run through a third protein.

Consider “HBS1 fused to the GAL4 activation domain (AD) (Arabidopsis thaliana)”, for which the binding entry in experiment [1] is on record as “binds”.

B1: PEL1-nYFP fusion protein (protein, UniProt Q9ZT87 1-378)
chain: T1 sequence
B1: the binding result in experiment [2] is “binds”.

B2: 6XHis-PEL1 fusion protein (protein, UniProt Q9ZT87 1-378)
chain: T1 sequence
As for B2, in experiment [3], the binding entry is on record as “binds”.
